Data as given in patent publication US20220281990A1 (MERRIMACK PHARMACEUTICALS, published 2022).
Results are given in words; binding and its absence hold for the method and conditions named. Some binding calls cover weakened binding; strength is not graded here.

By UniProt entry, the sequences of proteins in these tests, tags left out. Where a name states a change or a piece, a line headed by the entry shows the natural chain unless it says otherwise.
UniProt P20333: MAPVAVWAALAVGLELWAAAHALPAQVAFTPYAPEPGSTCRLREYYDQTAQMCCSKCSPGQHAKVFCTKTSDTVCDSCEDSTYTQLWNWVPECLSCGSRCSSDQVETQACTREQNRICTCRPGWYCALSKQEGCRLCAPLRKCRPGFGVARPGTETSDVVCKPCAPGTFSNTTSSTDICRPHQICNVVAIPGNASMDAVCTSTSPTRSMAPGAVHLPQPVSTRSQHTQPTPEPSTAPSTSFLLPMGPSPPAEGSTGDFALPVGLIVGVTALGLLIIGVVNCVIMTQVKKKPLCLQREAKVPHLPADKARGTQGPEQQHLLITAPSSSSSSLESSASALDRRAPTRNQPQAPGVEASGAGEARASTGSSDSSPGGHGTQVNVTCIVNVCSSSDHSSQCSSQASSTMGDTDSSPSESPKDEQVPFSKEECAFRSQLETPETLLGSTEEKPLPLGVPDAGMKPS

Tests used:
[1] = biological target: biotin-labeled human TNFR2 (immobilized on streptavidin biosensors) (human) (UniProt P20333); assay: BLI; biotin-labeled human TNFR2 captured on streptavidin biosensors
[2] = biological target: biotin-labeled human TNFR2 (immobilized on streptavidin biosensors) (human) (UniProt P20333); assay: BLI sensorgram (FIG. 15)
[3] = biological target: biotin-labeled human TNFR2 (immobilized on streptavidin biosensors) (human) (UniProt P20333); assay: biolayer interferometry, biotin-labeled hTNFR2 (5 ug/mL) on streptavidin biosensor already loaded with the comparator antibody; antibody at 20 ug/mL

binding [1]: binds | binding [2]: binds | binding [3]: binds
B1: UC2.3.8-IgG1 (antibody, V domains shown)
VH: QVQLLESGGGLVQPGGSLRLSCAASGFTFSTYAMSWIRQAPGKGLEWVSIISDGGDATVYADSVKGRFTISRDNNRNTLYLQMNSLRAEDTAVYYCARDGTSAAAFDSWGQGTLVTVSS
VL: DIQMTQSPSSLSASVGDRVTITCQASQDITNFLNWYQQKPGKAPKLLIYDASRRRAGVPSRFSGSGSGTDFTFTISSLQPEDIATYYCQQSDSYPITFGQGTKVEIKR
notes: Full-length human IgG1; UC2.3.3 heavy chain combined with UC2.3.7 light chain; also called anti-human TNFR2 IgG UC2.3.8
